The text below walks through data of publication PMC5434890.

Amino acid sequences for entries named in this document (tags omitted). Residues count along the entry.
UniProt Q15848, residues 19-244: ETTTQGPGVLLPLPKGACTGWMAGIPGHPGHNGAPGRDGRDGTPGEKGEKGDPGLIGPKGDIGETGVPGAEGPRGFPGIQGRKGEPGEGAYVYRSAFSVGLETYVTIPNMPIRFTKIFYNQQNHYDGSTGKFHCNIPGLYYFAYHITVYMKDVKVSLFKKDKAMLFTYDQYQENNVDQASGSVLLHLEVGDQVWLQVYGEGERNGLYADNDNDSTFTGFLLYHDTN
UniProt O60568, residues 25-738: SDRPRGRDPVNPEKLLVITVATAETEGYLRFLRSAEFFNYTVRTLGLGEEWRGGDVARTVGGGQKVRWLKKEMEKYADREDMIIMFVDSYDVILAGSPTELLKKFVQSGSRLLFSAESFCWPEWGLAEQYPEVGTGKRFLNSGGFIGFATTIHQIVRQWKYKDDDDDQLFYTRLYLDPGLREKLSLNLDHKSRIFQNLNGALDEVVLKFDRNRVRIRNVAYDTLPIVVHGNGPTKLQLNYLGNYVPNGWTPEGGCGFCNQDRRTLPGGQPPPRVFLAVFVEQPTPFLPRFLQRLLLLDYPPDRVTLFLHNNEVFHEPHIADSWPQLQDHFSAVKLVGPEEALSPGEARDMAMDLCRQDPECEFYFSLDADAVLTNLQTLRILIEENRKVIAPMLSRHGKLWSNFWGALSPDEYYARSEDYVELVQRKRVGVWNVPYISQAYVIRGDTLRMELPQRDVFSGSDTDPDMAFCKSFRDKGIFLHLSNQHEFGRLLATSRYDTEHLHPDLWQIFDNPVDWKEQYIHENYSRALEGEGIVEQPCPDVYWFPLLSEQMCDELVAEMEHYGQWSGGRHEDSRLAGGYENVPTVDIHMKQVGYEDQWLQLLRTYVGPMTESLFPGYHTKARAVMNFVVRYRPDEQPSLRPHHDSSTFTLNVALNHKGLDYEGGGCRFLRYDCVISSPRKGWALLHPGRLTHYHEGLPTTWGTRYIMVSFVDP

No constants are given. Whether binding was seen depends on the method and setting. For some assays here: In cells and extracts the contact can be indirect. Some binding calls cover weakened binding; strength is not graded here.

In assay [1] the target is full-length human adiponectin (Adipo-HEK) (human) (UniProt Q15848). The assay can be described thus: sucrose gradient sedimentation with Western blot; 50 µl of unconcentrated conditioned media of Adipo-HEK cells loaded onto a sucrose gradient; fractions blotted for adiponectin; cells treated with scrambled, GLT25D1 or LH3 siRNA.
Assay [2] concerns the target adiponectin (human (endogenous in SGBS)) (UniProt Q15848). The assay can be described thus: co-IP; SGBS adipocyte lysate (modified TK lysis buffer, 0.1% Tween-20), mouse anti-adiponectin antibody or IgG control on Protein G Sepharose, 2 h at 4 °C; Western blot for LH3, GLT25D1 and adiponectin.

Regarding “full-length human adiponectin (Adipo-HEK) (from UniProt Q15848 19-244)”, in assay [1], the binding result was “binds”.
Consider “lysyl hydroxylase 3 (LH3) (from UniProt O60568 25-738) (enzyme)”, for which, in assay [2], the binding entry is “binds”.
